Reference: article doi:10.1101/2024.02.24.581848
Results are given in words; binding and its absence hold for the method and conditions named. Binding calls can cover weak binding; strength is not graded here.

Target: HigC SecB^TA chaperone of the E. coli NT1F31 HigBAC system (E. coli NT1F31)
Experiment: HDX-MS

B1: gpV^48-78 peptide (peptide, UniProt P03733 48-78)
peptide: GELTAESYDDSYLDDEDADWTATGQGQKSAG
binding: binds
